Measurements: the supplement of paper PMC10849652
This is one part of the list.

Assays:
Test in all cases: log2 fold change, soluble protein after heating vs DMSO (PISA); higher = thermal stabilisation; K562 lysate, 10 uM; active = over 0.2 and 3.5 SD of the protein, either way, in both replicates (recomputed)
[1] = compound: C1=CC=C(C=C1)[C@H](COC2=CC3=C(C=C2)NC(=O)N3)NC(=O)C4=CC=CN(C4=O)CC5=CC(=C(C=C5)F)F
Procedure, shortened: (§1)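 To prepare the extract, K562 pellets were dounce-homogenised in PBS pH 7.4 with 1 mM MgCl2, giving crude material at 1 mg/mL protein. This was treated with 10 μM compound for 30 min, then heated in aliquots for 3 min over 48°C-58°C before pooling and addition of NP-40 to 0.5% at 4°C. Centrifugation at 21,000xg for 90 min left soluble protein in the supernatant, which TMTpro 16plex LC-MS/MS quantified with equalised channel sums. Results are log-two fold changes in thermal stability compared with solvent controls, from duplicates.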

[2] = compound: CC1=C(SC2=C1C(=N[C@H](C3=NN=C(N32)C)CC(=O)N)C4=CC=C(C=C4)Cl)C
Procedure, shortened: as §1

[3] = compound: CC1=C2C(=CC=C1)N=C(N(C2=O)C3=CC=CC=C3C)CN4C=NC5=C(N=CN=C54)N
Procedure, shortened: as §1

[4] = compound: Cc1sc2c(c1C)C(c1ccc(Cl)cc1)=N[C@@H](CC(=O)OC(C)(C)C)c1nnc(C)n1-2
Procedure, shortened: as §1

[5] = compound: c1ccc([C@@H]2C[C@H]2NC2CCNCC2)cc1
Procedure, shortened: as §1

erlotinib = compound: C#Cc1cccc(Nc2ncnc3cc(OCCOC)c(OCCOC)cc23)c1 [erlotinib]
Procedure, shortened: as §1

[6] = compound: C/C(=N\NC(=O)C1=CC(=CC=C1)S(=O)(=O)N2CCOCC2)/C3=C(C=CC(=C3)Cl)O
Procedure, shortened: as §1

[7] = compound: C1=CC(=CC=C1C2=NC3=C(N2)C=C(C=C3)C(=O)N)OC4=CC=C(C=C4)Cl
Procedure, shortened: as §1

[8] = compound: C1=CC2=C(C=CC(=C2)/C=C\3/C(=O)NC(=NCC4=CC=CS4)S3)N=C1
Procedure, shortened: as §1

[9] = compound: C1=CC=C(C=C1)C2=NC(=C(N2)C3=CC=NC=C3)C4=CC(=C(C=C4)Cl)O
Procedure, shortened: as §1

[10] = compound: C1=CC=C2C(=C1)C3=NNC4=CC=CC(=C43)C2=O
Procedure, shortened: as §1

[11] = compound: C1CCN(C1)C(=O)NC2=CC=CC(=C2)NC3=NC=C(C(=N3)NCCC4=CN=CN4)Br
Procedure, shortened: as §1

[12] = compound: C1CN(CCC1(CC2=CC=C(C=C2)Cl)N)C3=NC=NC4=C3C=CN4
Procedure, shortened: as §1

IRAK-1-4 Inhibitor I = compound: C1COCCN1CCN2C3=CC=CC=C3N=C2NC(=O)C4=CC(=CC=C4)[N+](=O)[O-] [IRAK-1-4 Inhibitor I]
Procedure, shortened: as §1

ralimetinib = compound: CC(C)(C)Cn1c(N)nc2ccc(-c3[nH]c(C(C)(C)C)nc3-c3ccc(F)cc3)nc21 [ralimetinib]
Procedure, shortened: as §1

[13] = compound: CC(C)(O)CC(=O)NCCn1ccc2ncnc(Nc3ccc(Oc4cccc(C(F)(F)F)c4)c(Cl)c3)c21
Procedure, shortened: as §1

[14] = compound: CC(C)C1=C2N=C(C=C(N2N=C1)NCC3=CC=CC=C3)NCCCCCCN
Procedure, shortened: as §1

[15] = compound: CC1=C(C=C(C=C1)NC(=O)C2=CC(=CC=C2)C(C)(C)C#N)NC3=CC4=C(C=C3)N=CN(C4=O)C
Procedure, shortened: as §1

[16] = compound: CC1=C(C=C(C=C1)NC(=O)C2=CC(=CC=C2)N(C)C)NC(=O)C3=CC=C(C=C3)O
Procedure, shortened: as §1

vemurafenib = compound: CCCS(=O)(=O)Nc1ccc(F)c(C(=O)c2c[nH]c3ncc(-c4ccc(Cl)cc4)cc23)c1F [vemurafenib]
Procedure, shortened: as §1

[17] = compound: CC[C@@H]1C(=O)N(C)c2cnc(Nc3ccc(C(=O)NC4CCN(C)CC4)cc3OC)nc2N1C1CCCC1
Procedure, shortened: as §1

[18] = compound: CCn1c(C(=O)N(C2CC2)C2CC2)cc2c3c(ncn3C)c(Nc3cc(C)n(C)n3)nc21
Procedure, shortened: as §1

sotrastaurin = compound: CN1CCN(c2nc(C3=C(c4c[nH]c5ccccc45)C(=O)NC3=O)c3ccccc3n2)CC1 [sotrastaurin]
Procedure, shortened: as §1

Tubastatin A = compound: CN1CCc2c(c3ccccc3n2Cc2ccc(C(=O)NO)cc2)C1 [Tubastatin A]
Procedure, shortened: as §1

[19] = compound: CNC(=O)C1=CC=CC=C1NC2=NC(=NC=C2Cl)NC3=C(C=C(C=C3)N4CCOCC4)OC
Procedure, shortened: as §1

defactinib = compound: CNC(=O)c1ccc(Nc2ncc(C(F)(F)F)c(NCc3nccnc3N(C)S(C)(=O)=O)n2)cc1 [defactinib]
Procedure, shortened: as §1

encorafenib = compound: COC(=O)N[C@@H](C)CNc1nccc(-c2cn(C(C)C)nc2-c2cc(Cl)cc(NS(C)(=O)=O)c2F)n1 [encorafenib]
Procedure, shortened: as §1

[20] = compound: COC(=O)[C@H](CCSC)NC(=O)C1=C(C=C(C=C1)NC[C@H](CS)N)C2=CC=CC=C2
Procedure, shortened: as §1

crizotinib = compound: C[C@@H](Oc1cc(-c2cnn(C3CCNCC3)c2)cnc1N)c1c(Cl)ccc(F)c1Cl [crizotinib]
Procedure, shortened: as §1

tozasertib = compound: Cc1cc(Nc2cc(N3CCN(C)CC3)nc(Sc3ccc(NC(=O)C4CC4)cc3)n2)n[nH]1 [tozasertib]
Procedure, shortened: as §1

doramapimod = compound: Cc1ccc(-n2nc(C(C)(C)C)cc2NC(=O)Nc2ccc(OCCN3CCOCC3)c3ccccc23)cc1 [doramapimod]
Procedure, shortened: as §1

quisinostat = compound: Cn1cc(CNCC2CCN(c3ncc(C(=O)NO)cn3)CC2)c2ccccc21 [quisinostat]
Procedure, shortened: as §1

[21] = compound: NC(=O)Nc1cc(-c2cccc(F)c2)sc1C(=O)N[C@H]1CCCNC1
Procedure, shortened: as §1

[22] = compound: NC1(c2ccc(-c3nc4ccn5c(=O)[nH]nc5c4cc3-c3ccccc3)cc2)CCC1
Procedure, shortened: as §1

[23] = compound: NCC(=O)Nc1ccc(-n2nc(C(F)(F)F)cc2-c2ccc3c(ccc4ccccc43)c2)cc1
Procedure, shortened: as §1

vorinostat = compound: O=C(CCCCCCC(=O)Nc1ccccc1)NO [vorinostat]
Procedure, shortened: as §1

silmitasertib = compound: O=C(O)c1ccc2c(c1)nc(Nc1cccc(Cl)c1)c1ccncc12 [silmitasertib]
Procedure, shortened: as §1

[24] = compound: O=C1NC(=O)C(c2cnc3ccccn23)=C1c1cn2c3c(cc(F)cc13)CN(C(=O)N1CCCCC1)CC2
Procedure, shortened: as §1

entospletinib = compound: c1cn2cc(-c3ccc4cn[nH]c4c3)nc(Nc3ccc(N4CCOCC4)cc3)c2n1 [entospletinib]
Procedure, shortened: as §1

Measured: log2 fold change

HNRNPK isoform 3 (UniProt P61978)
inactive: [1] -0.168 | [2] 0.047 | [3] -0.034 | [4] 0.005 | [5] -0.065

HMGB3 (UniProt O15347)
inactive: [1] 0.053 | [2] 0.026 | [3] -0.052 | [4] 0.078 | [5] 0.004

HIVEP1 (UniProt P15822)
inactive: erlotinib -0.006 | [6] -0.183 | [7] 0.08 | [8] -0.065 | [9] 0.183 | [10] 0.024 | [11] -0.103 | [12] 0.14 | IRAK-1-4 Inhibitor I 0.102 | ralimetinib -0.106 | [13] 0.201 | [14] 0.041 | [15] 0.068 | [16] 0.01 | [3] -0.001 | vemurafenib 0.018 | [17] -0.106 | [18] -0.076 | sotrastaurin 0.073 | Tubastatin A -0.053 | [19] 0.045 | defactinib 0.004 | encorafenib -0.085 | [20] -0.016 | crizotinib -0.051 | tozasertib 0.098 | doramapimod 0.024 | quisinostat -0.067 | [21] 0.057 | [22] 0.023 | [23] -0.021 | vorinostat 0.025 | silmitasertib -0.046 | [24] -0.012 | entospletinib 0.158

HMGN5 (UniProt Q5JSK9)
inactive: [1] -0.067 | [2] 0.015

HNRNPD isoform 2 (UniProt Q14103)
inactive: [1] 0.059 | [2] -0.015 | [3] -0.01 | [4] 0.018 | [5] 0.125

HIP1 (UniProt O00291)
inactive: [1] 0.004 | [2] 0.023 | [3] 0.047 | [4] -0.067 | [5] -0.039

HNRNPM (UniProt M0QZM1)
inactive: [1] -0.093 | [2] -0.092 | [3] -0.01 | [4] 0.152

HSP90AB3P (UniProt Q58FF7)
inactive: [1] -0.009 | [2] 0.063 | [3] 0.006 | [4] 0.055 | [5] 0.008

HMG20A (UniProt Q9NP66)
inactive: [1] 0.063 | [2] 0.05 | [3] -0.04 | [4] -0.046 | [5] -0.004

HNRNPA1 (UniProt P09651)
inactive: [1] -0.004 | [2] 0.017 | [3] 0.002 | [4] 0.081 | [5] 0.042

HMOX2 (UniProt P30519)
inactive: [1] 0.104 | [2] 0.018 | [3] 0.126 | [4] 0.037 | [5] -0.011

HIST2H2AA3 (UniProt Q6FI13)
inactive: [1] 0.017 | [2] 0 | [3] -0.111 | [4] 0.268 | [5] 0.277

HINT2 (UniProt Q9BX68)
inactive: [1] -0.011 | [2] -0.062 | [3] -0.017 | [4] 0.028 | [5] 0.019

Quoted from the listing (2 entries):
HSP90AB3P (UniProt Q58FF7)
inactive: [1] -0.009 | [2] 0.063 | [3] 0.006 | [4] 0.055 | [5] 0.008

HMG20A (UniProt Q9NP66)
inactive: [1] 0.063 | [2] 0.05 | [3] -0.04 | [4] -0.046 | [5] -0.004

(next part)

HNRNPL, A0A3B3ITJ4
inactive: [1] -0.063 | [2] -0.011

HLCS (UniProt P50747)
inactive: [1] -0.027 | [2] 0.027 | [3] 0.011 | [4] -0.006 | [5] 0.038

HELB (UniProt Q8NG08)
inactive: [1] 0.011 | [2] -0.02 | [3] 0.019 | [4] -0.011 | [5] 0.019

HNRNPLL (UniProt Q8WVV9)
inactive: [1] 0.018 | [2] 0.028 | [3] 0.007 | [4] 0.022 | [5] 0.036

HOMEZ isoform 3 (UniProt Q8IX15)
inactive: [1] -0.008 | [2] 0.092 | [3] -0.026 | [4] 0.009 | [5] 0.013

HNRNPK isoform 2 (UniProt P61978)
inactive: [1] 0.013 | [2] 0.008 | [3] 0.002 | [4] 0.013 | [5] -0.016

HGS (UniProt O14964)
inactive: [1] -0.013 | [2] 0.021 | [3] 0.018 | [4] 0.014 | [5] -0.033

HSPA4 (UniProt P34932)
inactive: [1] 0.011 | [2] 0.013 | [3] 0.006 | [4] 0.012 | [5] -0.006

HMGCS1 (UniProt Q01581)
inactive: [1] 0.043 | [2] -0.022 | [3] 0.02 | [4] 0.003 | [5] -0.009
